Values from PubChem BioAssay AID1259331 (Drosophila RNAi Screening Center, 2017).
Shown is one part, drawn at random, of about 3,100 deposited reagents. Of all reagents, 126 (4.1%) are marked active. 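Calls are per reagent; zinc was so toxic that few knock-downs lowered ATP further, so most hits raise ATP.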 The raw values are shown without normalisation. Entries without a mark were called inactive. Reagents against one gene are numbered here. Not given: the amount of reagent.

Aim: 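Fly transmembrane-protein genes that affect zinc toxicity in cultured cells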 (primary screen)
Cell system: Drosophila S2R+ cells
Reagents: long dsRNA against Drosophila genes
Timing: 5 days (4 days knock-down, then 1 day zinc)
Conditions: zinc chloride at 15 mM final level for 1 day
Measured: 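Luminescent ATP assay standing in for viability; Z score is the mean over three replicate plates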
Direction: mean Z score: higher = more ATP than other wells, better survival under zinc; ATP luminescence: higher = more ATP, more viable cells
Hit rule: 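a reagent is called a hit when its Z score is above 1.5 or below -1.5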
Calls: active = hit, ATP up or down; inactive = not a hit

{"Gene": "SerT (Serotonin transporter)", "reagent no.": 1, "mean Z score": 0.118, "ATP luminescence, replicate 1": 53961, "ATP luminescence, replicate 2": 43194}
{"Gene": "SerT (Serotonin transporter)", "reagent no.": 2, "mean Z score": 0.605, "ATP luminescence, replicate 1": 70802, "ATP luminescence, replicate 2": 70630}
{"Gene": "ppk11 (pickpocket 11)", "reagent no.": 1, "mean Z score": -0.301, "ATP luminescence, replicate 1": 47388, "ATP luminescence, replicate 2": 40022}
{"Gene": "Glut1 (Glucose transporter 1)", "reagent no.": 1, "mean Z score": -0.574, "ATP luminescence, replicate 1": 33387, "ATP luminescence, replicate 2": 34261}
{"Gene": "Glut1 (Glucose transporter 1)", "reagent no.": 2, "mean Z score": -0.607, "ATP luminescence, replicate 1": 27559, "ATP luminescence, replicate 2": 27405}
{"Gene": "Gr94a (Gustatory receptor 94a)", "reagent no.": 1, "mean Z score": 0.164, "ATP luminescence, replicate 1": 38685, "ATP luminescence, replicate 2": 61832}
{"Gene": "Gr94a (Gustatory receptor 94a)", "reagent no.": 2, "mean Z score": -0.119, "ATP luminescence, replicate 1": 60375, "ATP luminescence, replicate 2": 55625}
{"Gene": "CG14196", "reagent no.": 1, "mean Z score": 0.043, "ATP luminescence, replicate 1": 41393, "ATP luminescence, replicate 2": 45206}
{"Gene": "CG14196", "reagent no.": 2, "mean Z score": 0.00606, "ATP luminescence, replicate 1": 56619, "ATP luminescence, replicate 2": 57648}
{"Gene": "CG1636", "reagent no.": 1, "mean Z score": -0.477, "ATP luminescence, replicate 1": 41531, "ATP luminescence, replicate 2": 38764}
{"Gene": "ATPsynbetaL (ATP synthase, beta subunit-like)", "reagent no.": 1, "mean Z score": 0.24, "ATP luminescence, replicate 1": 85464, "ATP luminescence, replicate 2": 69087}
{"Gene": "ATPsynbetaL (ATP synthase, beta subunit-like)", "reagent no.": 2, "mean Z score": -0.186, "ATP luminescence, replicate 1": 54304, "ATP luminescence, replicate 2": 60889}
{"Gene": "Ir60a (Ionotropic receptor 60a)", "reagent no.": 1, "mean Z score": 0.157, "ATP luminescence, replicate 1": 52178, "ATP luminescence, replicate 2": 42782}
{"Gene": "Ir60a (Ionotropic receptor 60a)", "reagent no.": 2, "mean Z score": 0.935, "ATP luminescence, replicate 1": 63907, "ATP luminescence, replicate 2": 64919}
{"Gene": "ZnT49B (Zinc transporter 49B)", "reagent no.": 1, "mean Z score": -0.218, "ATP luminescence, replicate 1": 64713, "ATP luminescence, replicate 2": 58196}
{"Gene": "ZnT49B (Zinc transporter 49B)", "reagent no.": 2, "mean Z score": 0.479, "ATP luminescence, replicate 1": 56825, "ATP luminescence, replicate 2": 52950}

Laid out differently: entries from further up.
Gene | reagent no. | mean Z score | ATP luminescence, replicate 1 | ATP luminescence, replicate 2
Glut1 (Glucose transporter 1) | 1 | -0.574 | 33387 | 34261
Glut1 (Glucose transporter 1) | 2 | -0.607 | 27559 | 27405
Gr94a (Gustatory receptor 94a) | 1 | 0.164 | 38685 | 61832

Further reagents follow:
{"Gene": "CG8051", "reagent no.": 1, "mean Z score": -0.503, "ATP luminescence, replicate 1": 36130, "ATP luminescence, replicate 2": 40090}
{"Gene": "CG8051", "reagent no.": 2, "mean Z score": -0.365, "ATP luminescence, replicate 1": 64696, "ATP luminescence, replicate 2": 56568}
{"Gene": "SiaT (Sialyltransferase)", "reagent no.": 1, "mean Z score": -0.457, "ATP luminescence, replicate 1": 42079, "ATP luminescence, replicate 2": 43999}
{"Gene": "SiaT (Sialyltransferase)", "reagent no.": 2, "mean Z score": -0.0653, "ATP luminescence, replicate 1": 61592, "ATP luminescence, replicate 2": 56191}
{"Gene": "CG3792", "reagent no.": 1, "mean Z score": -0.172, "ATP luminescence, replicate 1": 48372, "ATP luminescence, replicate 2": 40433}
{"Gene": "otk (off-track)", "reagent no.": 1, "mean Z score": -0.436, "ATP luminescence, replicate 1": 78366, "ATP luminescence, replicate 2": 63633}
{"Gene": "otk (off-track)", "reagent no.": 2, "mean Z score": -0.109, "ATP luminescence, replicate 1": 58594, "ATP luminescence, replicate 2": 60855}
{"Gene": "otk (off-track)", "reagent no.": 3, "mean Z score": -0.178, "ATP luminescence, replicate 1": 47274, "ATP luminescence, replicate 2": 45423}
{"Gene": "otk (off-track)", "reagent no.": 4, "mean Z score": 0.0264, "ATP luminescence, replicate 1": 47360, "ATP luminescence, replicate 2": 43399}
{"Gene": "mri (mrityu)", "reagent no.": 1, "mean Z score": -0.468, "ATP luminescence, replicate 1": 27919, "ATP luminescence, replicate 2": 27889}
{"Gene": "mri (mrityu)", "reagent no.": 2, "mean Z score": -0.0406, "ATP luminescence, replicate 1": 62381, "ATP luminescence, replicate 2": 49366}
{"Gene": "CG32447", "reagent no.": 1, "mean Z score": -0.344, "ATP luminescence, replicate 1": 26325, "ATP luminescence, replicate 2": 28570}
{"Gene": "CG32447", "reagent no.": 2, "mean Z score": -0.162, "ATP luminescence, replicate 1": 73632, "ATP luminescence, replicate 2": 60272}
{"Gene": "kar (karmoisin)", "reagent no.": 1, "mean Z score": 0.686, "ATP luminescence, replicate 1": 51978, "ATP luminescence, replicate 2": 53121}
{"Gene": "kar (karmoisin)", "reagent no.": 2, "mean Z score": -0.818, "ATP luminescence, replicate 1": 39319, "ATP luminescence, replicate 2": 34227}
